Results from the supplement of paper PMC6078165.

Test system: HCC1143
Assay: relative JC-1 red fluorescence (viability) vs pre-drug, coculture with fibroblast (fraction); higher = more viable cancer cells
Procedure: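 JC-1 labelled TNBC cells cocultured 1:1 (1,500 cells each) with CellTrace Violet stained primary or stromal fibroblasts in 384-well plates in FluoroBrite medium, treated with one of 42 anticancer drugs at 0.1, 1, 10 or 100 uM. JC-1 red fluorescence (mitochondrial integrity in cancer cells only) was read by plate reader every 8 h for 72 h. Values are normalised to each well's pre-drug value. The stock of one drug was tenfold lower, so its dose labels may be too high.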

CO[C@@]12[C@H](COC(N)=O)C3=C(C(=O)C(C)=C(N)C3=O)N1C[C@@H]1N[C@@H]12 [Mitomycin C]
relative JC-1 red fluorescence
Settings	8 h	16 h	24 h	32 h	40 h	48 h	56 h	64 h	72 h
10 µM, coculture fibroblast: C12385	0.839	0.767	0.6576	0.576	0.495	0.438	0.387	0.362	0.337
10 µM, coculture fibroblast: H6013	0.7494	0.645	0.6	0.558	0.47	0.46	0.4159	0.3921	0.327
10 µM, coculture fibroblast: H6019	0.804	0.682	0.5962	0.495	0.416	0.38	0.338	0.305	0.286
10 µM, coculture fibroblast: H6076	0.828	0.8272	0.775	0.721	0.685	0.666	0.623	0.581	0.583
10 µM, coculture fibroblast: H6231	0.829	0.839	0.753	0.653	0.667	0.631	0.583	0.555	0.532
10 µM, coculture fibroblast: HADF	0.69681	0.615	0.572	0.576	0.448	0.422	0.386	0.36	0.324
10 µM, coculture fibroblast: HCFa	0.753	0.652	0.583	0.531	0.428	0.405	0.357	0.332	0.278
10 µM, coculture fibroblast: HCPF	0.802	0.801	0.734	0.628	0.625	0.59	0.564	0.53	0.53
10 µM, coculture fibroblast: HHSteC	0.8542	0.762	0.732	0.687	0.578	0.536	0.487	0.465	0.407
10 µM, coculture fibroblast: HMF	0.8029	0.826	0.728	0.625	0.628	0.586	0.518	0.486	0.454
10 µM, coculture fibroblast: HPFa	0.9133	0.817	0.739	0.627	0.512	0.471	0.43	0.406	0.382
10 µM, coculture fibroblast: HUF	0.8848	0.78686	0.684	0.534	0.468	0.436	0.39	0.358	0.343
10 µM, coculture fibroblast: Hs5	0.848	0.899	0.826	0.76	0.704	0.662	0.607	0.577	0.556
10 µM, coculture fibroblast: Hs27A	0.723	0.675	0.663	0.705	0.589	0.592	0.581	0.564	0.576
10 µM, coculture fibroblast: Hs343T	0.803	0.8066	0.7351	0.6578	0.623	0.58	0.513	0.484	0.448
10 µM, coculture fibroblast: WS1	0.83539	0.726	0.6506	0.553	0.483	0.442	0.391	0.368	0.355
100 µM, coculture fibroblast: C12385	0.679	0.594	0.547	0.523	0.48	0.48	0.483	0.474	0.478
100 µM, coculture fibroblast: H6013	0.59	0.487	0.473	0.453	0.456	0.475	0.459	0.455	0.383
100 µM, coculture fibroblast: H6019	0.601	0.483	0.452	0.408	0.382	0.376	0.35	0.344	0.333
100 µM, coculture fibroblast: H6076	0.713	0.608	0.544	0.561	0.485	0.487	0.471	0.461	0.48
100 µM, coculture fibroblast: H6231	0.6753	0.584	0.516	0.537	0.458	0.447	0.434	0.421	0.433
100 µM, coculture fibroblast: HADF	0.604	0.495	0.468	0.456	0.436	0.449	0.437	0.434	0.362
100 µM, coculture fibroblast: HCFa	0.588	0.471	0.437	0.427	0.417	0.417	0.403	0.396	0.34
100 µM, coculture fibroblast: HCPF	0.745	0.644	0.566	0.554	0.492	0.478	0.461	0.444	0.455
100 µM, coculture fibroblast: HHSteC	0.629	0.545	0.521	0.484	0.468	0.471	0.455	0.451	0.385
100 µM, coculture fibroblast: HMF	0.7179	0.62146	0.533	0.52103	0.463	0.458	0.444	0.436	0.4425
100 µM, coculture fibroblast: HPFa	0.695	0.555	0.523	0.475	0.434	0.442	0.417	0.419	0.412
100 µM, coculture fibroblast: HUF	0.65172	0.458	0.395	0.339	0.303	0.3	0.276	0.269	0.259
100 µM, coculture fibroblast: Hs5	0.77385	0.649	0.591	0.611	0.5238	0.509	0.502	0.502	0.523
100 µM, coculture fibroblast: Hs27A	0.585	0.551	0.546	0.562	0.531	0.577	0.56	0.56	0.455
100 µM, coculture fibroblast: Hs343T	0.746	0.623	0.504	0.4984	0.42724	0.4123	0.3945	0.3902	0.401
100 µM, coculture fibroblast: WS1	0.6234	0.4597	0.416	0.372	0.352	0.347	0.335	0.326	0.323

The reference is the same well before dosing, and untreated signal decays as well.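 Labels refer to human fibroblasts, largely primary: uterine (C12385, HUF), lung (H6013), bone (Hs27A), adrenal (HADF), skin (WS1), plus mammary HMF and breast cancer-associated Hs343T. Cancer lines are basal-like or mesenchymal-like triple-negative breast cancer. The paper counts as hits responses shifting over 3x the replicate standard deviation. The tissue of the other fibroblasts is not given here.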
